PubChem BioAssay AID504764, Drosophila RNAi Screening Center, 2011
In all, the deposit lists about 22,000 reagents; shown is an unselected part of those that have a named target and a result. Over the whole deposit, 403 (1.9%) got an active call. 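Unnormalised raw counts per well; ratio z-scores behind the hit calls and whether each hit raises or lowers signal are not deposited.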 Entries without a mark were called inactive. Reagents against one gene are numbered here. Not given: the amount of reagent.

Assay: 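Genes whose knock-down alters Notch-dependent transcription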 (primary screen)
Cell system: Drosophila Kc167 cells
Knock-down reagent: long dsRNA against Drosophila genes
Time to read-out: about 5 days (4 days dsRNA, then 24 h after transfection)
Challenge: transfection of constitutively active membrane-tethered Notch lacking the extracellular domain, read 24 h later
Detection: 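Light from a Notch-responsive E(spl)m3 luciferase reporter under active Notch, with control-promoter and no-Notch reporter wells to normalise; raw counts from paired wells a and b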
Direction: induced reporter light, run 1, well a and induced reporter light, run 1, well b: higher = more light from the Notch target reporter with active Notch; control promoter light, run 1, well a and control promoter light, run 1, well b: higher = more light from the viral control promoter (cell number, transfection, viability); uninduced reporter light, run 1, well a: higher = more light from the Notch target reporter without active Notch
Rule for the call: 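Wells with low control signal or poorly matching duplicates excluded; duplicates averaged; per source plate, z beyond ±2 for induced/control log2 ratio or beyond ±1.8 for induced/uninduced marks a hit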
Meaning of the calls: active = modifier hit (raised or lowered Notch signal); inactive = not a hit

ewg (erect wing) gave induced reporter light, run 1, well a = 1.25e5; induced reporter light, run 1, well b = 1.10e5; control promoter light, run 1, well a = 2.58e5; control promoter light, run 1, well b = 2.24e5; uninduced reporter light, run 1, well a = 7610.
After knock-down of Pur-alpha (Purine-rich binding protein-alpha) the results were induced reporter light, run 1, well a = 1.68e5; induced reporter light, run 1, well b = 1.64e5; control promoter light, run 1, well a = 2.29e5; control promoter light, run 1, well b = 2.76e5; uninduced reporter light, run 1, well a = 13610.
With knock-down of CG31848, the screen gave induced reporter light, run 1, well a = 1.48e5; induced reporter light, run 1, well b = 1.20e5; control promoter light, run 1, well a = 1.21e5; control promoter light, run 1, well b = 1.10e5; uninduced reporter light, run 1, well a = 8775.
Against Clbn (Caliban), the entry reads induced reporter light, run 1, well a = 1.61e5; induced reporter light, run 1, well b = 1.63e5; control promoter light, run 1, well a = 2.25e5; control promoter light, run 1, well b = 1.84e5; uninduced reporter light, run 1, well a = 13850.
After knock-down of Sec15 (Secretory 15), the screen gave induced reporter light, run 1, well a = 2.11e5; induced reporter light, run 1, well b = 1.68e5; control promoter light, run 1, well a = 2.05e5; control promoter light, run 1, well b = 2.15e5; uninduced reporter light, run 1, well a = 15815.
With knock-down of Gr33a (Gustatory receptor 33a), the screen gave induced reporter light, run 1, well a = 1.10e5 (active); induced reporter light, run 1, well b = 1.11e5; control promoter light, run 1, well a = 1.43e5; control promoter light, run 1, well b = 1.59e5; uninduced reporter light, run 1, well a = 8925.
Depletion of sigmar (salivary glands marred) resulted in: induced reporter light, run 1, well a = 1.46e5; induced reporter light, run 1, well b = 2.09e5; control promoter light, run 1, well a = 1.64e5; control promoter light, run 1, well b = 1.68e5; uninduced reporter light, run 1, well a = 14830.
Knock-down of Keap1 came out at: induced reporter light, run 1, well a = 1.57e5; induced reporter light, run 1, well b = 1.67e5; control promoter light, run 1, well a = 1.58e5; control promoter light, run 1, well b = 1.39e5; uninduced reporter light, run 1, well a = 14660.
Against CG12075, the entry reads induced reporter light, run 1, well a = 1.88e5; induced reporter light, run 1, well b = 1.70e5; control promoter light, run 1, well a = 1.70e5; control promoter light, run 1, well b = 1.67e5; uninduced reporter light, run 1, well a = 13355.
After knock-down of CG16704, the screen gave induced reporter light, run 1, well a = 2.63e5; induced reporter light, run 1, well b = 2.04e5; control promoter light, run 1, well a = 2.37e5; control promoter light, run 1, well b = 2.40e5; uninduced reporter light, run 1, well a = 11338.
For Hat1 (Histone acetyltransferase 1) the deposit lists induced reporter light, run 1, well a = 90735; induced reporter light, run 1, well b = 96805; control promoter light, run 1, well a = 84540; control promoter light, run 1, well b = 69965; uninduced reporter light, run 1, well a = 4610.
For Ykt6 (YKT6 v-SNARE) the deposit lists induced reporter light, run 1, well a = 1.57e5; induced reporter light, run 1, well b = 1.76e5; control promoter light, run 1, well a = 2.37e5; control promoter light, run 1, well b = 1.87e5; uninduced reporter light, run 1, well a = 12050.
For IFT52 (Intraflagellar transport 52), the entry reads induced reporter light, run 1, well a = 1.23e5; induced reporter light, run 1, well b = 97875; control promoter light, run 1, well a = 1.19e5; control promoter light, run 1, well b = 1.35e5; uninduced reporter light, run 1, well a = 7120.
With knock-down of vkg (viking), the record shows induced reporter light, run 1, well a = 97620; induced reporter light, run 1, well b = 69775; control promoter light, run 1, well a = 70395; control promoter light, run 1, well b = 61860; uninduced reporter light, run 1, well a = 5570.
Rh6 (Rhodopsin 6) scored induced reporter light, run 1, well a = 2.62e5; induced reporter light, run 1, well b = 2.62e5; control promoter light, run 1, well a = 2.62e5; control promoter light, run 1, well b = 2.49e5; uninduced reporter light, run 1, well a = 17905.
mmy (mummy) scored induced reporter light, run 1, well a = 1.50e5; induced reporter light, run 1, well b = 1.60e5; control promoter light, run 1, well a = 1.79e5; control promoter light, run 1, well b = 1.90e5; uninduced reporter light, run 1, well a = 12315.
Depletion of CG12395 came out at: induced reporter light, run 1, well a = 97260; induced reporter light, run 1, well b = 77175; control promoter light, run 1, well a = 92610; control promoter light, run 1, well b = 75110; uninduced reporter light, run 1, well a = 8610.
For CG45067, the values are induced reporter light, run 1, well a = 71115; induced reporter light, run 1, well b = 59420; control promoter light, run 1, well a = 1.18e5; control promoter light, run 1, well b = 1.08e5; uninduced reporter light, run 1, well a = 3220.
Against l(1)G0196 (lethal (1) G0196) #1, the values are induced reporter light, run 1, well a = 2.10e5; induced reporter light, run 1, well b = 2.10e5; control promoter light, run 1, well a = 2.81e5; control promoter light, run 1, well b = 2.85e5; uninduced reporter light, run 1, well a = 15980.
l(1)G0196 (lethal (1) G0196) #2 gave induced reporter light, run 1, well a = 91510; induced reporter light, run 1, well b = 1.04e5; control promoter light, run 1, well a = 68865; control promoter light, run 1, well b = 49200; uninduced reporter light, run 1, well a = 8055.
For l(1)G0196 (lethal (1) G0196) #3, the entry reads induced reporter light, run 1, well a = 1.27e5; induced reporter light, run 1, well b = 1.36e5; control promoter light, run 1, well a = 1.09e5; control promoter light, run 1, well b = 1.29e5; uninduced reporter light, run 1, well a = 12505.
e(y)2b (enhancer of yellow 2b) gave induced reporter light, run 1, well a = 65025; induced reporter light, run 1, well b = 1.09e5; control promoter light, run 1, well a = 90095; control promoter light, run 1, well b = 66505; uninduced reporter light, run 1, well a = 7795.
Knock-down of CG13062 resulted in: induced reporter light, run 1, well a = 1.85e5; induced reporter light, run 1, well b = 1.75e5; control promoter light, run 1, well a = 2.01e5; control promoter light, run 1, well b = 1.67e5; uninduced reporter light, run 1, well a = 7430.
CG1544 gave induced reporter light, run 1, well a = 1.64e5; induced reporter light, run 1, well b = 1.37e5; control promoter light, run 1, well a = 2.05e5; control promoter light, run 1, well b = 2.56e5; uninduced reporter light, run 1, well a = 12990.

Records listed so far whose target name starts with E or e:
ewg (erect wing) → induced reporter light, run 1, well a = 1.25e5; induced reporter light, run 1, well b = 1.10e5; control promoter light, run 1, well a = 2.58e5; control promoter light, run 1, well b = 2.24e5; uninduced reporter light, run 1, well a = 7610
e(y)2b (enhancer of yellow 2b) → induced reporter light, run 1, well a = 65025; induced reporter light, run 1, well b = 1.09e5; control promoter light, run 1, well a = 90095; control promoter light, run 1, well b = 66505; uninduced reporter light, run 1, well a = 7795
